# From PubChem BioAssay AID493014 (National Center for Advancing Translational Sciences (NCATS), 2011)
# Screen size: about 340,000 compounds; about 170 (0.05%) were called active. This list was built around the results that the source calls inconclusive (neither active nor inactive); the mix of calls is not that of the screen. Calls follow the shape of the dose curve; as a rule, active = well fitted inhibition curve with a large enough effect in the signal ratio, with a control signal flat (not every such curve was filed as active); inconclusive = small, poorly fitted or top-dose-only effect, or effect the other way, or a change in a side signal; inactive = flat fitted curve, though single readings scatter; the % refers to the signal ratio. Potencies of inconclusive entries are doubtful fits and often do not repeat.
# Assay: qHTS Assay to Find Inhibitors of Chronic Active B-Cell Receptor Signaling;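 as to activity change, negative = inhibition: plate controls were basal doxycycline-induced cells for no effect and cells given 10 µM MG132 for full effect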
# Details: ABC-DLBCL IkBa-CBG/CBR reporter, luminescence ratio (green luciferase fused to IkBa over red control in TMD8 lymphoma cells), 4 h; activity change, negative = inhibition: at 46.1 µM (top of the series)
# Procedure, shortened: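 Concentration-response series (up to 46 uM) were applied to TMD8 dual-reporter cells for 4 h at 37C with doxycycline. Green/red ratio, after filter-overlap correction, defined %Activity; red signal alone was normalised to basal cells and zero luminescence.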
# Potency is read from the fitted curve at half-maximal effect.
SMILES,"activity change, negative = inhibition",Potency
COCCCn1c(SCc2ccc(OC)cc2)nc2cc(OC)c(OC)cc2c1=N,inactive,
O=C(NCc1ccc(Cl)cc1Cl)C1CCN(S(=O)(=O)c2ccc3c(c2)OCCCO3)CC1,inconclusive: 4.49%,
Cc1ccc(-n2c(=O)c(C#N)cc3c(=O)n4cccc(C)c4nc32)cc1,inconclusive: 8.07%,
CCc1ccc(/C(C)=N/Nc2cc(Cl)nc(C)n2)cc1,inactive,
C=CCOC(=O)C1=C(C)OC(N)=C(C#N)C1c1ccc(F)cc1 (stereo unspecified),inconclusive: -18%,
O=C(Oc1ccc(-c2cnc3ccccc3n2)cc1)c1ccc(Br)o1,,"inconclusive: 1.84 µM [rising, partial curve]"
COc1ccccc1-c1oc2ccccc2c1-c1ccc2c(c1)OCO2,inconclusive: 24.6%,
COc1ccc(CN=C2NN=C(c3ccc(Cl)cc3)CS2)cc1,inconclusive: -1.78%,
c1cncc(Nc2nc(-c3ccncc3)cs2)c1,inactive,
COc1ccccc1/C=C1\SC(=S)N(CCC(=O)NCCCn2ccnc2)C1=O,,"inconclusive: 3.16 µM [falling, single point]"
CCOc1ccc(C(c2c(NC(=O)c3ccccc3)sc(C)c2C)N2CCN(CCO)CC2)cc1 (stereo unspecified),inconclusive: 0.822%,
Cc1ccsc1/C=N/Nc1ccc(C(=O)O)cc1,inconclusive: 199%,
O=[N+]([O-])c1ccc(N/N=C/c2ccc(O)c(O)c2O)c(S(=O)(=O)N2CCOCC2)c1,inactive,
CC(=O)Oc1ccc(N(C(C)=O)S(=O)(=O)c2cccs2)c2ccccc12,,"inconclusive: 32.6 µM [falling, single point]"
COc1ccccc1N1CCN(C(c2ccccn2)c2nnnn2C2CCCCC2)CC1 (stereo unspecified),inactive,
COc1cc2c(cc1OC)-c1cc(Nc3ccc(F)cc3)nc(=O)n1CC2,inconclusive: -0.864%,
COc1ccc(C(=O)/C=C2/C(=O)Nc3ccccc32)c(OC)c1,inconclusive: 8.2%,
O=C(O)c1cccc(C(=O)c2cccc(C(=O)O)c2)c1,,"inconclusive: 10 µM [falling, partial curve, poor fit]"
CC(NC(=O)c1ccc([N+](=O)[O-])cc1[N+](=O)[O-])c1ccc(-c2ccccc2)cc1 (stereo unspecified),inconclusive: -3.24%,
COc1ccc(/C=C/C(=O)NC(=S)NCCc2ccc(OC)c(OC)c2)cc1,inactive,
CCOC(=O)Cn1c2[n+](c3ccccc31)CC(O)CS2 (stereo unspecified),inconclusive: 0.643%,
Cc1nn(C)cc1/C=N/NC(=O)CSc1ccccn1,inconclusive: 13.7%,
CC(NC(=O)C1CCCN1S(=O)(=O)c1cccc2cccnc12)c1ccccc1 (stereo unspecified),inconclusive: -0.155%,
COC(=O)[C@@]1(C)[C@H]2C(=O)N(Cc3ccccc3)C(=O)[C@H]2[C@H]2CN=C(SCc3ccc(C#N)cc3)N21,inconclusive: 0%,
CCc1ccc(-c2cc(C(F)(F)F)n3nc(C(=O)Nc4cnn(Cc5ccccc5C)c4)cc3n2)s1,inactive,
O=C(Nc1ccc(NC(=O)c2ccccc2Cl)cc1)c1cccnc1,inconclusive: -13.5%,

# Part of the list above in order of molar mass, low to high:
SMILES,"activity change, negative = inhibition",Potency
Cc1ccsc1/C=N/Nc1ccc(C(=O)O)cc1,inconclusive: 199%,
COCCCn1c(SCc2ccc(OC)cc2)nc2cc(OC)c(OC)cc2c1=N,inactive,
CCc1ccc(-c2cc(C(F)(F)F)n3nc(C(=O)Nc4cnn(Cc5ccccc5C)c4)cc3n2)s1,inactive,

# Next compounds:

SMILES,"activity change, negative = inhibition",Potency
COc1ccc(C)cc1S(=O)(=O)N(CC(=O)Nc1cccc([N+](=O)[O-])c1)c1ccc(C)cc1,,"inconclusive: 18.4 µM [rising, partial curve, poor fit]"
O=C(Nc1nnc(SCC(=O)N2CCOCC2)s1)C1CC(=O)N(c2ccc(F)cc2)C1 (stereo unspecified),inconclusive: -7.56%,
CC(=O)c1ccc(Nc2c(C)n(C)n(-c3ccccc3)c2=O)cc1,inconclusive: 12.5%,
CNC(=O)/C(C#N)=C/c1cc(C)n(-c2ccc(N3CCOCC3)cc2)c1C,inactive,
COc1ccc(C2C(C(=O)Nc3cc(OC)c(OC)c(OC)c3)c3ccccc3C(=O)N2C)cc1 (stereo unspecified),inconclusive: -27.1%,
O=C(OCN1C(=O)c2ccccc2C1=O)c1cc(S(=O)(=O)N2CCOCC2)ccc1F,inactive,
CCCCN(C(=O)c1cccc(S(=O)(=O)N2CCN(C)CC2)c1)c1c(N)n(CCCC)c(=O)[nH]c1=O,inconclusive: 3.63%,
Cc1cccc(NC(=O)c2ccc(CN3CCN(Cc4ccccc4)CC3)cc2)c1,,"inconclusive: 22.4 µM [falling, partial curve, poor fit]"
COc1ccc(/C=C2\SC(=S)N(CCC(=O)N3CCCCC3)C2=O)cc1,,"inconclusive: 3.98 µM [rising, full curve, poor fit]"
CCCC(C(=O)Nc1ccc(S(=O)(=O)N2CCOCC2)cc1)c1ccccc1 (stereo unspecified),inconclusive: -1.19%,
COc1ccc(C(=O)OCc2cc(=O)n3c(C)csc3n2)cc1F,inconclusive: 6.05%,
C/C(=N\NC(=S)NCc1ccccc1)c1ccccc1F,,"inconclusive: 11.2 µM [falling, partial curve]"
CCOC(=O)CNC(c1ccccc1)c1cc(Br)ccc1NC(=O)OCC (stereo unspecified),inconclusive: 16.4%,
COc1ccc(-c2nc(CSCC(=O)N3CCN(c4cccc(C)c4)C(C)C3)c(C)o2)cc1OC (stereo unspecified),inactive,
O=C(Nc1c(C(=O)N2CCC(N3CCCCC3)CC2)oc2ccccc12)c1ccc(F)cc1,inactive,
COc1cccc(C(C(=O)NC(C)(C)C)N(C(=O)CCC(=O)Nc2cc(C)on2)C(C)C)c1OC (stereo unspecified),inconclusive: -1.12%,
O=C(N/N=C/C1CC=CCC1)c1cc(Br)ccc1O (stereo unspecified),inconclusive: 183%,
Cc1ccccc1C(=O)NNC(=O)C12CC3CC(CC(C3)C1)C2,inactive,
COc1ccc(N=C2NC(=O)/C(=C\C=C\c3ccco3)S2)cc1,inactive,
CN(CC(=O)Nc1ccc(F)c(F)c1F)C(=O)c1cc(-c2ccncc2)nc2ccccc12,inconclusive: -4%,
COc1ccc(/C=N/N2CCOCC2)cc1OCc1ccccc1,inactive,
Cc1nc(NC(=O)c2ccccc2)sc1-c1csc(NCc2ccco2)n1,,"inconclusive: 20.6 µM [falling, single point]"
COc1ccccc1-n1cnc2cc(NCc3ccccn3)ccc21,,"inconclusive: 20 µM [falling, partial curve, poor fit]"
N#Cc1c(NC(=O)CSCC(=O)O)sc2c1CCCC2,inconclusive: -13.2%,
O=C(Nc1nc2c(s1)COc1ccccc1-2)c1cccs1,,"inconclusive: 29.1 µM [falling, single point]"
